Measurements reported in PubChem BioAssay AID1259262 (Sanger Institute, 2017).
This is a random part of 160 deposited reagents. Of all reagents, 93 (58%) were called active. 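Calls refer to single siRNAs; gene-level validation required two or more siRNAs in several lines; synergy score formula unstated.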 Entries without a mark were called inactive. The numbers tell different reagents against one gene apart. Not all columns of the deposit are shown. The record does not give: the amount of reagent, the time to read-out.

Screen: 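Confirming kinase hits that combine with targeted drugs in colorectal cancer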 (follow-up of hits)
Cell system: LS513 human colorectal cancer cells
Reagents: single siRNA against human genes
Conditions: anchor drug or DMSO vehicle: cetuximab 5 µg/ml, trametinib 10 nM or BYL719 1 µM; exposure length not given
Measured: 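Cell viability relative to non-targeting control siRNA, and a synergy score for each anchor drug, averaged over replicates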
Scale: synergy score with trametinib and synergy score with BYL719 and synergy score with cetuximab: higher = stronger synergistic loss of viability with drug
Call rule: 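Active when the synergy score is above 0.10 for trametinib, BYL719 or cetuximab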
Calls: active = synergy with at least one drug; inactive = no synergy with any drug

Silencing of PFKFB3 #1 gave: synergy score with trametinib 0.0534; synergy score with BYL719 = -0.165; synergy score with cetuximab 0.00602.
PFKFB3 #2 showed synergy score with trametinib 0.132 (active); synergy score with BYL719 = -0.0759; synergy score with cetuximab 0.00211.
With knock-down of PFKFB3 #3 the results were synergy score with trametinib -0.061; synergy score with BYL719 = -0.294; synergy score with cetuximab -0.225.
Depletion of PFKFB3 #4 resulted in: synergy score with trametinib 0.322 (active); synergy score with BYL719 = -0.0675; synergy score with cetuximab -0.0856.
After knock-down of PAK1 #1 the results were synergy score with trametinib 0.249 (active); synergy score with BYL719 = -0.0869; synergy score with cetuximab -0.0765.
Silencing of PAK1 #2 gave: synergy score with trametinib 0.133 (active); synergy score with BYL719 = -0.0401; synergy score with cetuximab 0.0122.
PAK1 #3 showed synergy score with trametinib 0.255 (active); synergy score with BYL719 = -0.00191; synergy score with cetuximab -0.159.
Knock-down of PAK1 #4 resulted in: synergy score with trametinib 0.263 (active); synergy score with BYL719 = -0.16; synergy score with cetuximab -0.0455.
Silencing of NLK #1 gave: synergy score with trametinib 0.119 (active); synergy score with BYL719 = -0.0772; synergy score with cetuximab -0.0327.
With knock-down of NLK #2 the results were synergy score with trametinib 0.0195; synergy score with BYL719 = -0.166; synergy score with cetuximab -0.0601.
Knock-down of NLK #3 gave: synergy score with trametinib -0.00478; synergy score with BYL719 = -0.226; synergy score with cetuximab -0.0932.
NLK #4 scored synergy score with trametinib 0.0261; synergy score with BYL719 = -0.165; synergy score with cetuximab -0.11.
